These are yes or no findings as the source states them, for the method shown. In cells and extracts the contact can be indirect. Some entries that bind do so weakly or less than the wild type. For part of these data: Where a sequence is shown, tags or fusion partners need not be part of it.
Columns and labels:
[1] = target: T1, endogenous FNIP1 (folliculin-interacting protein 1) (human (endogenous in HEK293, cancer cell lines and renal tissue)) (UniProt Q8TF40); assay: co-IP; endogenous FNIP1 and FNIP2 isolated from HEK293 lysates with anti-FNIP1 or anti-FNIP2 (IgG control), immunoblot
T1 sequence: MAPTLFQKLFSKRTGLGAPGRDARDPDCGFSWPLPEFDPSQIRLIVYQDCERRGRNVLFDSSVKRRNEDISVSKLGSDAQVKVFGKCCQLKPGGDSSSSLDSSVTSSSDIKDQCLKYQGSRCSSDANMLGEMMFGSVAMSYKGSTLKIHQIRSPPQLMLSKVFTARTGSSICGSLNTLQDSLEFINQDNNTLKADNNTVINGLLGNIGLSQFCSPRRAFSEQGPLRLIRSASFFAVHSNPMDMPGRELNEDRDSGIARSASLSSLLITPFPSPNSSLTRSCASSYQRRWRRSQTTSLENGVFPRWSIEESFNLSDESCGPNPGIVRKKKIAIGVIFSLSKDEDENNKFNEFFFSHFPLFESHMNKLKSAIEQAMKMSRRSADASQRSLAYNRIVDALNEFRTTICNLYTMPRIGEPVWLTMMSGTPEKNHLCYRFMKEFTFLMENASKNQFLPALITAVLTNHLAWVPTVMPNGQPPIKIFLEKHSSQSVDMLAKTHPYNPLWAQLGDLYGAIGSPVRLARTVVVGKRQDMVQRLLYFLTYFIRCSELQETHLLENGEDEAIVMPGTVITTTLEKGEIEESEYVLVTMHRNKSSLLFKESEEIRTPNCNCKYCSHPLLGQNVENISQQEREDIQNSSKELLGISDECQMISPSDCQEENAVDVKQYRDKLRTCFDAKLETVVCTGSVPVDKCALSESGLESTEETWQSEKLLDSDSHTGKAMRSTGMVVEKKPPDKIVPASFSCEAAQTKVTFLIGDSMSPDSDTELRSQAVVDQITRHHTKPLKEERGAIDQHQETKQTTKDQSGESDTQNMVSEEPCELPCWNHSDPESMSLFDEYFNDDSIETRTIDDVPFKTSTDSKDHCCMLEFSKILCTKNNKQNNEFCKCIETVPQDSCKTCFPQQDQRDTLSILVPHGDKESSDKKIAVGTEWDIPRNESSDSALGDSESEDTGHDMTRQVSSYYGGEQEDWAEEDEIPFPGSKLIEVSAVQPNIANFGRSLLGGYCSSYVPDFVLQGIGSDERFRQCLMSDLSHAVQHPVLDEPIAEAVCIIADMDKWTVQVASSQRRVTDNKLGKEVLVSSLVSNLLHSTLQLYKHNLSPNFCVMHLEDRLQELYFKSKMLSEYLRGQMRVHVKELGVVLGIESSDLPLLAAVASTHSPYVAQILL

Sequences of proteins named here, by UniProt entry; tags and fusion partners are left off.
UniProt P04150: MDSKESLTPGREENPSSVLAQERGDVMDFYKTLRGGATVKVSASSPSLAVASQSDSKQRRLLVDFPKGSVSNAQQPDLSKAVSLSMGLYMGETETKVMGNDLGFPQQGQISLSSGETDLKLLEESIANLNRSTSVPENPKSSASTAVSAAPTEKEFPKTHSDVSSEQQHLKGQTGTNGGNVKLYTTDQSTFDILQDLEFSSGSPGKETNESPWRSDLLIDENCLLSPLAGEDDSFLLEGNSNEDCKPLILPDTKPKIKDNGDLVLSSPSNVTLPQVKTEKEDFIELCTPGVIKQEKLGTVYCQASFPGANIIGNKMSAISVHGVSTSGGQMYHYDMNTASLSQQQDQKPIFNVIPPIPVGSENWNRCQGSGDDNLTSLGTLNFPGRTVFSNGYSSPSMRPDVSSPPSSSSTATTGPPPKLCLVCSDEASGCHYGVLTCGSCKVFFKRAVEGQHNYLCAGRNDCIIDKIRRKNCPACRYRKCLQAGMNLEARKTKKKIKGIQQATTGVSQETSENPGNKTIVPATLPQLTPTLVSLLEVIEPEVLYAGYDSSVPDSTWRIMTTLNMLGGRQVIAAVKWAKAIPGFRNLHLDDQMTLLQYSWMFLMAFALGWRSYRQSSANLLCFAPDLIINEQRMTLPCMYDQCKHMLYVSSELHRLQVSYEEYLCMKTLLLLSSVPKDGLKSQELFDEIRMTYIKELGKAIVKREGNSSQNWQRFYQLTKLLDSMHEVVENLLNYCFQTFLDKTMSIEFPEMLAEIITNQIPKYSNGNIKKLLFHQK
UniProt Q9UNE7: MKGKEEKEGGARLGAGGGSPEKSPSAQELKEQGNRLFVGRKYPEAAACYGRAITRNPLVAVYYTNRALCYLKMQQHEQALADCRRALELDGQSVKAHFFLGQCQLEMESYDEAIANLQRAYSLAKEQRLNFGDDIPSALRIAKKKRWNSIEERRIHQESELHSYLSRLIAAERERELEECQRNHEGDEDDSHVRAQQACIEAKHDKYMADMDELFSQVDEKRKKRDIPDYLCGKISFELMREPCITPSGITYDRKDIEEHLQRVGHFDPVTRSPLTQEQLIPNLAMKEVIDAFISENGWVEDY
UniProt P15056: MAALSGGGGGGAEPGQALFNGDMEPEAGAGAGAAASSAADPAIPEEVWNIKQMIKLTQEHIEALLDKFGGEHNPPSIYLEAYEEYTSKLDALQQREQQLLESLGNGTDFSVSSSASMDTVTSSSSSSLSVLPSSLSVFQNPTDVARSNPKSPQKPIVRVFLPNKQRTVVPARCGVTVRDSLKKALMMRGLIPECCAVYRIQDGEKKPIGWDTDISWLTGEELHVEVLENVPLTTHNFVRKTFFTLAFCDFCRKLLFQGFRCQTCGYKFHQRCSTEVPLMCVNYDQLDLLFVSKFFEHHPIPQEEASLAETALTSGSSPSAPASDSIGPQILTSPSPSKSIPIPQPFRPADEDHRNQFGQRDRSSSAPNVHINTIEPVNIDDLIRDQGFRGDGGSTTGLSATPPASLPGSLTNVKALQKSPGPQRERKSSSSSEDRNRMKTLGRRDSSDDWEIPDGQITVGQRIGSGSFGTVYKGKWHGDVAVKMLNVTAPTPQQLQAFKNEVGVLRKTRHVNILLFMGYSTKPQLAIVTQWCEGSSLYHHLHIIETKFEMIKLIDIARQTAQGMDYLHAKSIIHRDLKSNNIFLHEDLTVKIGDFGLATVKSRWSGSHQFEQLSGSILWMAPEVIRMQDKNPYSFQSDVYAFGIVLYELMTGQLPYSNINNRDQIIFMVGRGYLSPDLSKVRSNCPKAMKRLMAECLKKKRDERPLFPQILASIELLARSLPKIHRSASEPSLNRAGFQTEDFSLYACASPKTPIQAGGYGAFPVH
UniProt O95433: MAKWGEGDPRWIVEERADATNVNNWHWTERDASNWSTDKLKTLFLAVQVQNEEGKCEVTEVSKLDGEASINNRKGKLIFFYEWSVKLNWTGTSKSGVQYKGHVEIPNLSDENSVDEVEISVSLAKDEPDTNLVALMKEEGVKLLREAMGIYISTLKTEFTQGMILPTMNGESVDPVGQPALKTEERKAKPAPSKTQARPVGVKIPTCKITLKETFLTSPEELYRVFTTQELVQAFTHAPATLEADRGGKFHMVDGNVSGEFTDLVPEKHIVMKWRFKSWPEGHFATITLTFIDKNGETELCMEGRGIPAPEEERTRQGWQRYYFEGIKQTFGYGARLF

[2] = target: T2, endogenous FNIP2 (folliculin-interacting protein 2) (human (endogenous in HEK293, cancer cell lines and renal tissue)) (UniProt Q9P278); assay: as above
T2 sequence: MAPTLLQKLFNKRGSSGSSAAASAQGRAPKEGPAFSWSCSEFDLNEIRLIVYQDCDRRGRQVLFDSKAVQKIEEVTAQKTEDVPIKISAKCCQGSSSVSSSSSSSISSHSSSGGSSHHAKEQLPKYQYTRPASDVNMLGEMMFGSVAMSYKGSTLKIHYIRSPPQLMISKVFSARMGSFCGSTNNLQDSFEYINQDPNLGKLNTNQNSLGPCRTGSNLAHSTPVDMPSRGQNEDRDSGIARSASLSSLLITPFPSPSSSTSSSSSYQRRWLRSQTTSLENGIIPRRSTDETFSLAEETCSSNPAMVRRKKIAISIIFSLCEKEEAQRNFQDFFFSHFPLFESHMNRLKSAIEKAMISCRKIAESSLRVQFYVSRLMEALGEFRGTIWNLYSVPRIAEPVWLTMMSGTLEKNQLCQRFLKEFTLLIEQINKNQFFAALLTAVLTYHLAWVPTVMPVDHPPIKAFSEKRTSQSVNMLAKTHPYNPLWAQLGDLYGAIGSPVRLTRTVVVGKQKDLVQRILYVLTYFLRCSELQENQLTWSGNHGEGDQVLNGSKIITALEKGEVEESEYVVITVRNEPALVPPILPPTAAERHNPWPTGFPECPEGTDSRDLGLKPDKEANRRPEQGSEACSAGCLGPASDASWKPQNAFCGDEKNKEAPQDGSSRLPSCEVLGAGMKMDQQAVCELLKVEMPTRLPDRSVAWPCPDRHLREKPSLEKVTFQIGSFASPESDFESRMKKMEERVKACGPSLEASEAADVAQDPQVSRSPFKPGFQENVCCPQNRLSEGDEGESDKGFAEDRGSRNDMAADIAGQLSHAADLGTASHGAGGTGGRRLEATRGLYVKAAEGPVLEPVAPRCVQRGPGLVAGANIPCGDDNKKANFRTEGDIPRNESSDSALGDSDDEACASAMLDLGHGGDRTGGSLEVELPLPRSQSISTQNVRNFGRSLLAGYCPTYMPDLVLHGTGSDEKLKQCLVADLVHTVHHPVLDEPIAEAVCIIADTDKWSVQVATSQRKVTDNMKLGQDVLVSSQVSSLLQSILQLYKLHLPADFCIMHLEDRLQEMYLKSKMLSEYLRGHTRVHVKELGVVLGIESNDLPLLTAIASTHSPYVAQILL

[3] = target: T3, FLAG–FLCN (amino-terminally FLAG-tagged folliculin) (UniProt Q8NFG4); assay: co-IP; FLAG–FLCN (empty vector control) immunoprecipitated from HEK293, immunoblot
T3 sequence: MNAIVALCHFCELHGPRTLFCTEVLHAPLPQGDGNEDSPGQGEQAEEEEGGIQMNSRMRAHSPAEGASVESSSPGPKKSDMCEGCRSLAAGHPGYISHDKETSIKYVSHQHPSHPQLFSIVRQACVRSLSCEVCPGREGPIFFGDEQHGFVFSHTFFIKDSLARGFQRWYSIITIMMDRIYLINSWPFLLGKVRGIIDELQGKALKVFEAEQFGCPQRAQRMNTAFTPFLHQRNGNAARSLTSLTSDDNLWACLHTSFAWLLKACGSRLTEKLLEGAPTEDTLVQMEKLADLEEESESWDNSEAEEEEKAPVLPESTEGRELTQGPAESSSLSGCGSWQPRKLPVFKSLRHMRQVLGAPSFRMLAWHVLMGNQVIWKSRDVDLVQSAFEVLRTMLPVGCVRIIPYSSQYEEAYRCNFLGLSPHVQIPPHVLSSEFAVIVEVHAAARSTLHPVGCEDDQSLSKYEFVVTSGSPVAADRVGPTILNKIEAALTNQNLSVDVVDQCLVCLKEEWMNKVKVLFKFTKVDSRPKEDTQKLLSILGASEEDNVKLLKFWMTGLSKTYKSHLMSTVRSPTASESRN

[4] = target: T4, endogenous FLCN (folliculin) (human (endogenous in HEK293)) (UniProt Q8NFG4); assay: co-IP; endogenous FLCN isolated from HEK293 lysates with anti-FLCN (IgG control), immunoblot
T4 sequence: T3 sequence

| binding [1] | binding [2] | binding [3] | binding [4] | Substance |
| --- | --- | --- | --- | --- |
| binds | binds | – | – | glucocorticoid receptor (GR), endogenous (from UniProt P04150 1-777) |
| – | – | binds | binds | CHIP, endogenous (from UniProt Q9UNE7 1-303) |
| binds | binds | – | – | B-Raf, endogenous (from UniProt P15056 1-766) |
| binds | binds | binds | binds | HOP, endogenous (from UniProt P31948 1-543) |
| – | – | binds | binds | Aha1, endogenous (from UniProt O95433 1-338) |

Source: article PMC4931344
